Binding data for six molecules are collected here from patent US20070154905A1.

The chains behind the UniProt entries cited, without tags or fusion partners. Residues count along the entry.
UniProt P25445, residues 26-335: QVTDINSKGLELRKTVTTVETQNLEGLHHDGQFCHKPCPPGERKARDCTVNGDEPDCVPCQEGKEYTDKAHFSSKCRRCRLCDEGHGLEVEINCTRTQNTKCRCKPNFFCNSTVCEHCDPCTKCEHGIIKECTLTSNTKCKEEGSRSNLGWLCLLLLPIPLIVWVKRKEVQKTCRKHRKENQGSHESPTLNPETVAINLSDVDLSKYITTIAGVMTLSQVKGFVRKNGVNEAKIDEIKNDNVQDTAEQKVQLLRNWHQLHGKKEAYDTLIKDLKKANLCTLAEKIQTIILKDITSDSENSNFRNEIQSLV

No constants are given. Whether binding was seen depends on the method and setting. For part of these data: Binding seen in cells or lysates may run through a third protein. Some binding calls cover weakened binding; strength is not graded here. For part of these data: Sequences can lack the tags named with a protein.

Test [1] concerns the target T1, MORT-1 protein (full-length) (human).
T1 sequence: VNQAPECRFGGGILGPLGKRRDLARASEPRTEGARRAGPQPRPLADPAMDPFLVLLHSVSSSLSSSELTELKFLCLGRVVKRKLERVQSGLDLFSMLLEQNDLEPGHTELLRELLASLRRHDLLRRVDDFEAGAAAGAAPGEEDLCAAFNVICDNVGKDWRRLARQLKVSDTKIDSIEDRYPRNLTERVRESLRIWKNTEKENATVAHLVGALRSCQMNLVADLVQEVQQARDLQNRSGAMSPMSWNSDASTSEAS
The test can be described thus: yeast two-hybrid, β-galactosidase test (FIG. 1).

The target is the same in test [2]. The test can be described thus: yeast two-hybrid, β-galactosidase filter assay.
Test [3] concerns the target T2, MORT1 fused at its N terminus to the HA epitope (human).
T2 sequence: T1 sequence
The test can be described thus: co-immunoprecipitation of 35S-labelled FLAG- and HA-tagged proteins from HeLa cells, SDS-PAGE and autoradiography.

In test [4] the target is T3, glutathione-S-transferase-MORT-1 fusion protein (human).
T3 sequence: T1 sequence
The test can be described thus: in vitro binding to GST-MORT-1.

Test [5] has as its target T1, MORT-1 protein (full-length) (human). The test can be described thus: co-expression in mammalian cells.
In test [6] the target is T4, MORT-1 fragment, amino acids 1-117 (N-terminal part) (human).
T4 sequence: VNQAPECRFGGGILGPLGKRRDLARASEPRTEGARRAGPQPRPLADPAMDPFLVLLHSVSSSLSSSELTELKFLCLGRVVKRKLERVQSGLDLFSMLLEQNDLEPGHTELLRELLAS
Description: yeast two-hybrid, β-gal filter assay (FIG. 5).

Test [7] concerns the target T1, MORT-1 protein (full-length) (human). The test can be described thus: co-immunoprecipitation from 293-EBNA cell lysates.
Test [8] has the same target. The test can be described thus: yeast two-hybrid screen of a human B cell library with MORT-1 as bait.
The target of test [9] is human FAS-R (whole receptor expressed in HeLa cells) (human) (UniProt P25445). The test can be described thus: cross immunoprecipitation from co-transfected HeLa cells, both directions.
For test [10], the target named is GST fusion with the human Fas-IC (human) [GST: P08515]. The test can be described thus: GST pull-down of 35S-labelled FLAG-MORT-1 from HeLa extracts, SDS-PAGE and autoradiography.
Test [11] deals with T5, GST fusion with the mouse Fas-IC (mouse) (UniProt P25446).
T5 sequence (looked up): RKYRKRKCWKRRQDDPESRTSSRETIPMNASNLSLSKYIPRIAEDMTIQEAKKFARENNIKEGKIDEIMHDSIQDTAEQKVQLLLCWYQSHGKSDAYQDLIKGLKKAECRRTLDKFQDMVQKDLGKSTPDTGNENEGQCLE
The description is as above.

For test [12], the target named is T6, intracellular domain of mouse FAS-R (full-length Fas-IC construct) (mouse) (UniProt P25446).
T6 sequence (looked up): T5 sequence (looked up)
The test can be described thus: yeast two-hybrid, β-galactosidase test (FIG. 1).

Test [13] concerns the target T7, MORT-1-binding protein of Example 2 (product of the two cDNA clones from the human B-cell library) (human) (UniProt Q15628).
T7 sequence (looked up): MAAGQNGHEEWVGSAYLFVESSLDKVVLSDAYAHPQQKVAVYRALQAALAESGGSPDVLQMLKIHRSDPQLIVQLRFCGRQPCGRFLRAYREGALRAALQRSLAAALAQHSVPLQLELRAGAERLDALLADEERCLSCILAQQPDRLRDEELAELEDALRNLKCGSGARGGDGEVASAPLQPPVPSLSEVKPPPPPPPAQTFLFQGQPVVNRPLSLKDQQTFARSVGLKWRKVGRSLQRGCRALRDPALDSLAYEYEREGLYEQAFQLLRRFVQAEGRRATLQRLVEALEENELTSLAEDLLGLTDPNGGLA
The test can be described thus: yeast two-hybrid screen of a human B cell library with MORT-1 as bait.

B1: MORT-1 fragment, amino acids 1-117 (N-terminal part) (protein)
chain: T4 sequence
Consider B1, for which, in [1], the binding result is reported as “binds”.

B2: MACH (construct with the full-length MACH cDNA) (protein)
chain: MDFSRNLYDIGEQLDSEDLASLKFLSLDYIPQRKQEPIKDALMLFQRLQEKRMLEESNLSFLKELLFRINRLDLLITYLNTRKEEMERELQTPGRAQISAYRVMLYQISEEVSRSELRSFKFLLQEEISKCKLDDDMNLLDIFIEMEKRVILGEGKLDILKRVCAQINKSLLKIINDYEEFSKERSSSLEGSPDEFSNDFGQSLPNEKQTSGILSDHQQSQFCKSTGESAQTSQH
Turning to B2, the binding result in test [2] is given as “binds”.

B3: MACHβ1 fused at its N-terminus to the FLAG octapeptide (protein, not shown: small tags and cut ends)
chain: B2 chain
For B3, the binding entry in [3] is “binds”.

B4: MACHβ1 (ORF-B of MACH) (protein)
chain: B2 chain
Consider B4, for which the binding entry in test [4], in test [5], in [6], in [7] and in test [8] was “binds” in each case.

B5: MORT-1 fused at its N terminus with the FLAG octapeptide (protein, not shown: small tags and cut ends)
chain: T1 sequence
As to B5, the binding entry in test [9], in test [10] and in test [11] was “binds” in each case.

B6: MORT-1 protein (full-length) (protein)
chain: T1 sequence
Turning to B6, the binding entry in test [1], in test [12], in [8] and in test [13] was “binds” in each case.
